{"source": "PubChem BioAssay AID602196 (INSERM, 2012)", "assay": "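Knock-downs that protect lung cancer cells from cisplatin or sensitise them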", "system": "human A549 lung cancer cells", "reagents": "siRNA pair against human genes", "time to read-out": "48 h transfection before cisplatin; time from cisplatin to read-out not stated", "conditions": "cisplatin at a dose killing half of control-siRNA cells; exact dose and duration not given", "measurement": "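Cisplatin cell death as a shift from the 50% death seen with control siRNA; siRNAs toxic or growth-blocking alone scored 0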", "direction": "two-siRNA summed score (-2 to +2): higher = both siRNAs protect from cisplatin killing; -2 means both sensitise; mean protection from cisplatin (shift in death): higher = protection from cisplatin killing", "active means": "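Each siRNA scores 0 if harmful alone by LDH or WST-1, otherwise +1 if it reduces and -1 if it increases cisplatin killing; a gene is active when both siRNAs agree (sum +2 or -2)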", "calls": "active = both siRNAs shift cisplatin killing the same way; inactive = no consistent shift, or siRNA harmful alone", "note": "Here is one part, drawn at random, of about 23,000 reagents tested. 455 of all reagents (2%) were called active. 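Active includes both protection and sensitisation; some change values fall well beyond the stated -50 to +50 range.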 Further read-outs or replicates are left out here. The record does not give: the amount of reagent."}
The opening 2 records, ahead of the listing:
{"gene symbol": "TSEN54", "two-siRNA summed score (-2 to +2)": 0, "mean protection from cisplatin (shift in death) (%)": -8.1, "call": "inactive"}
{"gene symbol": "MBTPS1", "two-siRNA summed score (-2 to +2)": 0, "mean protection from cisplatin (shift in death) (%)": -8.3, "call": "inactive"}

The listing, from the start:
{"gene symbol": "TSEN54", "two-siRNA summed score (-2 to +2)": 0, "mean protection from cisplatin (shift in death) (%)": -8.1, "call": "inactive"}
{"gene symbol": "MBTPS1", "two-siRNA summed score (-2 to +2)": 0, "mean protection from cisplatin (shift in death) (%)": -8.3, "call": "inactive"}
{"gene symbol": "HTR7", "two-siRNA summed score (-2 to +2)": -1, "mean protection from cisplatin (shift in death) (%)": -2.7, "call": "inactive"}
{"gene symbol": "TTC22", "two-siRNA summed score (-2 to +2)": 0, "mean protection from cisplatin (shift in death) (%)": 5, "call": "inactive"}
{"gene symbol": "SPMIP2", "two-siRNA summed score (-2 to +2)": 0, "mean protection from cisplatin (shift in death) (%)": 12.5, "call": "inactive"}
{"gene symbol": "KIAA1542", "two-siRNA summed score (-2 to +2)": -1, "mean protection from cisplatin (shift in death) (%)": -6.6, "call": "inactive"}
{"gene symbol": "BPIFB9P", "two-siRNA summed score (-2 to +2)": 0, "mean protection from cisplatin (shift in death) (%)": 2.1, "call": "inactive"}
{"gene symbol": "LOC389149", "two-siRNA summed score (-2 to +2)": 0, "mean protection from cisplatin (shift in death) (%)": 17.4, "call": "inactive"}
{"gene symbol": "LOC440058", "two-siRNA summed score (-2 to +2)": 1, "mean protection from cisplatin (shift in death) (%)": 19.1, "call": "inactive"}
{"gene symbol": "MSI1", "two-siRNA summed score (-2 to +2)": 0, "mean protection from cisplatin (shift in death) (%)": -5.9, "call": "inactive"}
{"gene symbol": "KRTAP21-2", "two-siRNA summed score (-2 to +2)": 1, "mean protection from cisplatin (shift in death) (%)": 19.3, "call": "inactive"}
{"gene symbol": "CD93", "two-siRNA summed score (-2 to +2)": -1, "mean protection from cisplatin (shift in death) (%)": -29.6, "call": "inactive"}
{"gene symbol": "POLR2M", "two-siRNA summed score (-2 to +2)": 0, "mean protection from cisplatin (shift in death) (%)": 20.9, "call": "inactive"}
{"gene symbol": "TRIM16", "two-siRNA summed score (-2 to +2)": -1, "mean protection from cisplatin (shift in death) (%)": -12.6, "call": "inactive"}
{"gene symbol": "LOC400602", "two-siRNA summed score (-2 to +2)": 0, "mean protection from cisplatin (shift in death) (%)": 7.5, "call": "inactive"}
{"gene symbol": "OR10AG1", "two-siRNA summed score (-2 to +2)": 0, "mean protection from cisplatin (shift in death) (%)": 6.1, "call": "inactive"}
{"gene symbol": "LOC341098", "two-siRNA summed score (-2 to +2)": 0, "mean protection from cisplatin (shift in death) (%)": 5.2, "call": "inactive"}
{"gene symbol": "GALC", "two-siRNA summed score (-2 to +2)": 0, "mean protection from cisplatin (shift in death) (%)": -2, "call": "inactive"}
{"gene symbol": "HUWE1", "two-siRNA summed score (-2 to +2)": 0, "mean protection from cisplatin (shift in death) (%)": -6.7, "call": "inactive"}
{"gene symbol": "DEPDC1B", "two-siRNA summed score (-2 to +2)": 0, "mean protection from cisplatin (shift in death) (%)": 2.2, "call": "inactive"}
{"gene symbol": "GPR26", "two-siRNA summed score (-2 to +2)": 1, "mean protection from cisplatin (shift in death) (%)": 11.3, "call": "inactive"}
{"gene symbol": "SPNS1", "two-siRNA summed score (-2 to +2)": 0, "mean protection from cisplatin (shift in death) (%)": -1, "call": "inactive"}
{"gene symbol": "LOC441618", "two-siRNA summed score (-2 to +2)": 0, "mean protection from cisplatin (shift in death) (%)": 5.6, "call": "inactive"}
{"gene symbol": "OR4C11", "two-siRNA summed score (-2 to +2)": -1, "mean protection from cisplatin (shift in death) (%)": -5.5, "call": "inactive"}
{"gene symbol": "ADGRE2", "two-siRNA summed score (-2 to +2)": -1, "mean protection from cisplatin (shift in death) (%)": -8.7, "call": "inactive"}
{"gene symbol": "CCDC8", "two-siRNA summed score (-2 to +2)": 0, "mean protection from cisplatin (shift in death) (%)": 5.8, "call": "inactive"}
{"gene symbol": "STXBP5", "two-siRNA summed score (-2 to +2)": -1, "mean protection from cisplatin (shift in death) (%)": -10.7, "call": "inactive"}
{"gene symbol": "LMNB2", "two-siRNA summed score (-2 to +2)": 0, "mean protection from cisplatin (shift in death) (%)": -2.9, "call": "inactive"}
{"gene symbol": "KLHL26", "two-siRNA summed score (-2 to +2)": 1, "mean protection from cisplatin (shift in death) (%)": 9.5, "call": "inactive"}
{"gene symbol": "SLC25A43", "two-siRNA summed score (-2 to +2)": -1, "mean protection from cisplatin (shift in death) (%)": -10.1, "call": "inactive"}
{"gene symbol": "PNRC2", "two-siRNA summed score (-2 to +2)": 0, "mean protection from cisplatin (shift in death) (%)": 4.6, "call": "inactive"}
{"gene symbol": "IFNB1", "two-siRNA summed score (-2 to +2)": 0, "mean protection from cisplatin (shift in death) (%)": -6.1, "call": "inactive"}
{"gene symbol": "LOC442612", "two-siRNA summed score (-2 to +2)": 0, "mean protection from cisplatin (shift in death) (%)": 12.5, "call": "inactive"}
{"gene symbol": "SUPT7L", "two-siRNA summed score (-2 to +2)": 1, "mean protection from cisplatin (shift in death) (%)": 13.8, "call": "inactive"}
{"gene symbol": "LOC388641", "two-siRNA summed score (-2 to +2)": 0, "mean protection from cisplatin (shift in death) (%)": 3.9, "call": "inactive"}
{"gene symbol": "LOC442377", "two-siRNA summed score (-2 to +2)": 0, "mean protection from cisplatin (shift in death) (%)": -2.7, "call": "inactive"}
{"gene symbol": "SLC22A16", "two-siRNA summed score (-2 to +2)": 0, "mean protection from cisplatin (shift in death) (%)": 2.5, "call": "inactive"}
{"gene symbol": "LOC391025", "two-siRNA summed score (-2 to +2)": 0, "mean protection from cisplatin (shift in death) (%)": -1.9, "call": "inactive"}
{"gene symbol": "ZBTB2", "two-siRNA summed score (-2 to +2)": 0, "mean protection from cisplatin (shift in death) (%)": 3.6, "call": "inactive"}
{"gene symbol": "LAMTOR4", "two-siRNA summed score (-2 to +2)": 0, "mean protection from cisplatin (shift in death) (%)": 3.4, "call": "inactive"}
